Results from US20230391826A1, “COMPOSITIONS AND METHODS FOR TREATING DISEASES” (Sanford Burnham Prebys Medical Discovery Institute, priority 2020, published 2023).
At least one peptide structure holds a part that was inferred or is arguable (an end, a ring closure or a residue). Some entries share one result that the patent states for a list of compounds. Where a SMILES comes first, the peptide text is derived from it. Bridges are numbered along the chain shown (N, C = ends). Roman numbers before positions name the chains, in order. [ ]: non-standard residue; d: D form. βAla = NCCC(=O)O

Sequences of proteins named here, by UniProt entry; tags and fusion partners are left off. Residues count along the entry.
UniProt P29317, 24-976: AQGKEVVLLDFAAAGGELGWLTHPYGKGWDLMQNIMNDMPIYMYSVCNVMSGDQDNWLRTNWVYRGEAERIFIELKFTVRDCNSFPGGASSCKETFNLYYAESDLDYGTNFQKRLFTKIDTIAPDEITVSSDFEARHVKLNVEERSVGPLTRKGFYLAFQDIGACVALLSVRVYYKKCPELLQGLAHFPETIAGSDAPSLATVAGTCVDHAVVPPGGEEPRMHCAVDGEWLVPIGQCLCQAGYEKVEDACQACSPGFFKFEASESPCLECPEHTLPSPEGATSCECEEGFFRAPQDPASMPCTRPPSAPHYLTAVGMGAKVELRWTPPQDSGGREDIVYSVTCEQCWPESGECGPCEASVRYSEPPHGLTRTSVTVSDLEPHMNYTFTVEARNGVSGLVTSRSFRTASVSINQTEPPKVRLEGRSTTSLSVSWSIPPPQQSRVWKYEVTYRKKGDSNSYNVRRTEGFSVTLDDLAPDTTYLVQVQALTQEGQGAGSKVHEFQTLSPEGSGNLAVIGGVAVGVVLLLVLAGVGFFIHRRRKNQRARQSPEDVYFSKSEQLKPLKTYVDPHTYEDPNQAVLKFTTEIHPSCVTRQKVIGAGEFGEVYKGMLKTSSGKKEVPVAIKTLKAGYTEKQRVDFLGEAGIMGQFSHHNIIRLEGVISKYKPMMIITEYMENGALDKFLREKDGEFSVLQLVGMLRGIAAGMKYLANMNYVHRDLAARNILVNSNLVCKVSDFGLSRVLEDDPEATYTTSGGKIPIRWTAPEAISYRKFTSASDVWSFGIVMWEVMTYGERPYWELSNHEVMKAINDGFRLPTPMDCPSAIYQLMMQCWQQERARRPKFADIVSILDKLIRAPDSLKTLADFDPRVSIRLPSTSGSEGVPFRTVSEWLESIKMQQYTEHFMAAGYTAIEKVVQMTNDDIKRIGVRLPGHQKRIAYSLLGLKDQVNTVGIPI

What was measured:
Type in all cases: cell-based
EphA2 [1] = target: T1, EphA2 (Homo sapiens, UniProt P29317); assay: EphA2 autophosphorylation on tyrosine 588 in PC3 cells (immunoblot dose-response); set-up: EphA2 is the prevalent endogenously expressed EphA receptor in these cells; endogenous in cells; host or cells: PC3 prostate cancer cells
Procedure: (§1) (FIG. 2A) Dose-response curves for EphA2 autophosphorylation on tyrosine 588 (pY588; purple) and for downstream inhibition of AKT phosphorylation (magenta). PC3 cells were treated for 15 min with different concentrations of the indicated peptides. […] The graphs show quantifications from multiple blots (averages ±SE; the number of experiments used to generate each curve is shown in Table 3). […] (FIG. 2B) Examples of immunoblots of lysates from PC3 cells treated with the indicated concentrations of representative ligands. […] A white vertical line indicates removal of irrelevant lanes. […] The bars show averages ±SE, and the individual measurements are shown as black dots. […] Plots of Etop versus EC50 for pY588 in FIG. 2D and for pAKT inh in FIG. 2E. Averages ±SE are shown for the peptides and ephrinA1.
To examine the agonistic properties of the different dimeric peptide ligands, EphA2 autophosphorylation on tyrosine 588 (Y588) was measured, which is indicative of receptor activation and mediates binding of SH2 domain-containing proteins that link EphA2 to various downstream signaling pathways (FIG. 7). For these experiments, PC3 prostate cancer cells were stimulated with the dimeric peptides because EphA2 is the prevalent endogenously expressed EphA receptor in these cells, allowing comparisons with ephrins.

AKT [2] = assay: AKT S473 phosphorylation in stably transfected HEK293 cells expressing EphA2; details: 2.5 min stimulation; compared with peptide (6) and ephrinA1-Fc
AKT [3] = assay: Inhibition of AKT phosphorylation on S473 in PC3 cells; details: Table 3, 15 min, 1-pAKT/AKT normalized to cells not treated with ligand
Procedure: as §1

EphA2 [4] = target: T1, EphA2; assay: Bias factor βlig (pY588 versus pAKT inhibition, PC3 cells, reference ephrinA1-Fc); set-up: EphA2 is the prevalent endogenously expressed EphA receptor in these cells; endogenous in cells; host or cells: PC3 prostate cancer cells
Procedure: FIG. 6 illustrates an example where Ligands can bias EphA2 signaling responses. The bias factor βlig was calculated for the indicated ligands using ephrinA1-Fc as the reference ligand. Statistical significance for the comparison of the different ligands with the reference ligand ephrinA1-Fc (βlig=0) was determined by one sample t test; *, P<0.05; **, P<0.01; ***, P<0.001; ****, P<0.0001.
FIG. 14A-14E illustrates an example where distinct factors are responsible for EphA2 biased signaling induced by different ligands. (FIG. 14A) Etop values for EphA2 Y588 phosphorylation, as in FIG. 2C. (FIG. 14B) Etop values for inhibition of AKT phosphorylation. […]
The possibility of EphA2 biased signaling by analyzing the dose-response curves obtained with endogenous EphA2 in PC3 cells (FIG. 2A) was explored using approaches developed for GPCRs. This involves using EphA2 Y588 phosphorylation and AKT phosphorylation quantified as a function of ligand concentration to determine and compare the potency (EC50) and efficacy (Etop) for the two responses induced by different ligands. […]
The determined EC50 and Etop values allowed us to calculate the bias factor βlig for the two different responses induced by the various ligands relative to ephrinA1-Fc as the reference ligand (FIG. 14E). […]

CC(C)C[C@H](NC(=O)[C@H](Cc1c[nH]c2ccccc12)NC(=O)CCN)C(=O)N[C@@H](C)C(=O)N[C@@H](Cc1ccc(O)cc1)C(=O)N1CCC[C@H]1C(=O)N[C@@H](CC(=O)O)C(=O)N[C@@H](CO)C(=O)N[C@H](C(=O)N1CCC[C@H]1C(=O)N[C@@H](Cc1ccc(O)cc1)C(=O)NCC(=O)N[C@@H](CO)C(=O)NCC(=O)N[C@@H](CSSC[C@H](NC(=O)CNC(=O)[C@H](CO)NC(=O)CNC(=O)[C@H](Cc1ccc(O)cc1)NC(=O)[C@@H]1CCCN1C(=O)[C@@H](NC(=O)[C@H](CO)NC(=O)[C@H](CC(=O)O)NC(=O)[C@@H]1CCCN1C(=O)[C@H](Cc1ccc(O)cc1)NC(=O)[C@H](C)NC(=O)[C@H](CC(C)C)NC(=O)[C@H](Cc1c[nH]c2ccccc12)NC(=O)CCN)C(C)C)C(=O)O)C(=O)O)C(C)C [compound 1, βA-WLA-YGSGC dimer (C-ter)] (I: H-[βAla]WLAYPDSVPYGSGC-OH / II: H-[βAla]WLAYPDSVPYGSGC-OH; disulfide I:15-II:15; N-terminus and C-terminus assumed)
times lower agonistic potency than the other dimers with similar configuration (EphA2 [1]; pY588): 10-60 times

CC(C)C[C@H](NC(=O)[C@H](Cc1c[nH]c2ccccc12)NC(=O)CCN)C(=O)N[C@@H](C)C(=O)N[C@@H](Cc1ccc(O)cc1)C(=O)N1CCC[C@H]1C(=O)N[C@@H](CC(=O)O)C(=O)N[C@@H](CO)C(=O)N[C@H](C(=O)N1CCC[C@H]1C(=O)N[C@@H](Cc1ccc(O)cc1)C(=O)N[C@@H](CCCNC(=N)N)C(=O)N1CCC[C@H]1C(=O)N[C@@H](CCCCN)C(=O)NCC(=O)NCC(=O)N[C@@H](C)C(=O)N[C@@H](Cc1c[nH]c2ccccc12)C(=O)N[C@@H](CC(C)C)C(=O)N[C@@H](C)C(=O)N[C@@H](Cc1ccc(O)cc1)C(=O)N1CCC[C@H]1C(=O)N[C@@H](CC(=O)O)C(=O)N[C@@H](CO)C(=O)N[C@H](C(=O)N1CCC[C@H]1C(=O)N[C@@H](Cc1ccc(O)cc1)C(=O)N[C@@H](CCCNC(=N)N)C(=O)N1CCC[C@H]1C(=O)N[C@@H](CCCCN)C(N)=O)C(C)C)C(C)C [compound 8, linear dimer (head-to-tail)] (H-[βAla]WLAYPDSVPYRPKGGAWLAYPDSVPYRPK-NH2; N-terminus assumed)
increase in AKT phosphorylation, HEK293 cells expressing EphA2 WT (AKT [2]): more prominently | Etop pAKT inhlb (AKT [3]): 0.87 ± 0.02 | Etop pY588 (EphA2 [1]; Table 3, 15 min, saturating ligand, pY588/EphA2 normalized to ephrinA1-Fc): .76 ± 0.0 | Emax PY588 (EphA2 [1]; ephrinA1Fc = 1.00): 0.61 ± 0.02 | βu (bias factor βlig) (EphA2 [4]; Table 3, reference ligand ephrinA1-Fc (βlig=0)): 0.62 ± 0.06 | Blig (EphA2 [4]; bias factor, reference ligand ephrinA1Fc): 0.62 ± 0.13
